According to patent US20220233572:
For some of these results: No signal at the amounts used counts as a negative. For some of these results: At least one result comes from cells or an extract, where the contact may be indirect. For some of these results: Tags and fusion partners may be left off the protein sequences shown. For some of these results: For at least one entry, the source does not settle the construct or the ends of the probe.

Protein sequences, listed by entry. Tags and fused reporters are not part of them. Residues count along the entry.
UniProt O00206, 24-839: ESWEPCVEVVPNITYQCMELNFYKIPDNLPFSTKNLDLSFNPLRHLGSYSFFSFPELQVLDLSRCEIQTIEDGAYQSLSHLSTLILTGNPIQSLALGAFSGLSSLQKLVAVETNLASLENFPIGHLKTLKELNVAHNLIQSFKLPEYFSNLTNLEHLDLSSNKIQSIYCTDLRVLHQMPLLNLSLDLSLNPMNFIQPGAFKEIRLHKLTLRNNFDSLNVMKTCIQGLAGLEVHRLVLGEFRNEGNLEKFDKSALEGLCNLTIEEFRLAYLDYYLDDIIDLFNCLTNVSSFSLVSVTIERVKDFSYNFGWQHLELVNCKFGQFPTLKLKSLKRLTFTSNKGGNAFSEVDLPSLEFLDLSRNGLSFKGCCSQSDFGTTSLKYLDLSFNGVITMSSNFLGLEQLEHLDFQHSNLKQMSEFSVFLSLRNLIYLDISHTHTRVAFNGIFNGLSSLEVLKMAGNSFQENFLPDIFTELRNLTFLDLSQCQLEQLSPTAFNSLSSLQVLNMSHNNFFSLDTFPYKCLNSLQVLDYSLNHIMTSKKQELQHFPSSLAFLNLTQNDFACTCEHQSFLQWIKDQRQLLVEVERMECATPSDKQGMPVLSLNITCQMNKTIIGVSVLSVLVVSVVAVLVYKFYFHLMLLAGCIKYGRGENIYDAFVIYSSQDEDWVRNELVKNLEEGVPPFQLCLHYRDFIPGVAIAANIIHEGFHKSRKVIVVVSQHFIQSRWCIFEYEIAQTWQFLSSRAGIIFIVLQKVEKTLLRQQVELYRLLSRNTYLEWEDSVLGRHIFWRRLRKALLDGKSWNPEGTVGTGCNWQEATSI
UniProt O60603, 21-784: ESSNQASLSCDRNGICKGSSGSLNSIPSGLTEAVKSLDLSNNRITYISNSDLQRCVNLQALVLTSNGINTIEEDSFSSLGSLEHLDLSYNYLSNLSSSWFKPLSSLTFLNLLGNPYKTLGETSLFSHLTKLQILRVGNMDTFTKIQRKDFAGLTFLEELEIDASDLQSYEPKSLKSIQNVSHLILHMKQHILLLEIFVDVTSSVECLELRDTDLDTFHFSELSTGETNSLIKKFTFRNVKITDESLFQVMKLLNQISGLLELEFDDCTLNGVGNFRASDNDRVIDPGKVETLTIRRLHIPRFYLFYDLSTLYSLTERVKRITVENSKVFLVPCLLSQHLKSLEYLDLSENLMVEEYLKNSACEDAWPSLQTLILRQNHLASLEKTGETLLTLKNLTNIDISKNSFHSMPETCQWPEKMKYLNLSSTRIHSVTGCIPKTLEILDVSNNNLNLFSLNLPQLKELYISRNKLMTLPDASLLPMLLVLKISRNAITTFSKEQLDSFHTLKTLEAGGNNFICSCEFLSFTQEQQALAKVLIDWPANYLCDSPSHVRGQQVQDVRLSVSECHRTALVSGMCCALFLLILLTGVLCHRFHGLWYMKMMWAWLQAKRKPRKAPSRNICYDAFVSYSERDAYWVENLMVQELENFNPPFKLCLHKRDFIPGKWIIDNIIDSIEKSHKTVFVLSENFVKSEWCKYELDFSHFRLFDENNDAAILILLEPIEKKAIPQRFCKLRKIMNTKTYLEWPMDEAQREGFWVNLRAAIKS
UniProt O60602, 21-858: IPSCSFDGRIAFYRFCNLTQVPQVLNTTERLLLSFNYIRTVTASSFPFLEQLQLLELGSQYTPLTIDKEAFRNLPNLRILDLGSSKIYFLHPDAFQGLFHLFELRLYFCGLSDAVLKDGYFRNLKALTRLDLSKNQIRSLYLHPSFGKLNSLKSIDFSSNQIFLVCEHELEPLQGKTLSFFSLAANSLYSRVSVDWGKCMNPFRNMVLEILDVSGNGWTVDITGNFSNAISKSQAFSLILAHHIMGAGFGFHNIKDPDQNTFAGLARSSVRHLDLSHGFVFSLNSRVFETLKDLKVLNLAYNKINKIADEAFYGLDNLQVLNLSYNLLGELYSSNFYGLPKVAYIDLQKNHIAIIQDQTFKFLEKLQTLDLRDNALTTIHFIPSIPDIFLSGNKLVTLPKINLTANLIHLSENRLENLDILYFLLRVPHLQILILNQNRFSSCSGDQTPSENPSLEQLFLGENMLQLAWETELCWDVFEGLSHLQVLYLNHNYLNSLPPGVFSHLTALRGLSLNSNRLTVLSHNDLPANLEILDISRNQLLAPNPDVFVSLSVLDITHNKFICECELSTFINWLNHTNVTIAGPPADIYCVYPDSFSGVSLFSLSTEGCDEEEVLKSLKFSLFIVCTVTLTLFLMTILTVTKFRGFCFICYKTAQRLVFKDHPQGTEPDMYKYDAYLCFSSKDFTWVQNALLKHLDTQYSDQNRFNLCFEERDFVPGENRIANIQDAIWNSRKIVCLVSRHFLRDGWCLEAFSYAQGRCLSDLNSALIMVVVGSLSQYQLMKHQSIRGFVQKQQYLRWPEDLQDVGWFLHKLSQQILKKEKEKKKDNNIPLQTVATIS

Experiments:
[1] = target: TLR4 (hTLR-4) (Homo sapiens) (UniProt O00206); test: activity in cells; details: protein on the cell surface, single-stranded DNA
[2] = target: T1, TLR4 (mouse, on blood cells or peritoneal macrophages) (Mus musculus) (UniProt Q9QUK6); test: flow cytometry; details: labelled aptamer 0.9 mg/kg i.v.; detected on blood cells (granulocyte region) of TLR4+/+ but not TLR4-/- mice; protein on the cell surface; label: Alexa Fluor 488 in binding assays; single-stranded DNA; variant of ApTLR#4F
T1 sequence (looked up, limits assumed): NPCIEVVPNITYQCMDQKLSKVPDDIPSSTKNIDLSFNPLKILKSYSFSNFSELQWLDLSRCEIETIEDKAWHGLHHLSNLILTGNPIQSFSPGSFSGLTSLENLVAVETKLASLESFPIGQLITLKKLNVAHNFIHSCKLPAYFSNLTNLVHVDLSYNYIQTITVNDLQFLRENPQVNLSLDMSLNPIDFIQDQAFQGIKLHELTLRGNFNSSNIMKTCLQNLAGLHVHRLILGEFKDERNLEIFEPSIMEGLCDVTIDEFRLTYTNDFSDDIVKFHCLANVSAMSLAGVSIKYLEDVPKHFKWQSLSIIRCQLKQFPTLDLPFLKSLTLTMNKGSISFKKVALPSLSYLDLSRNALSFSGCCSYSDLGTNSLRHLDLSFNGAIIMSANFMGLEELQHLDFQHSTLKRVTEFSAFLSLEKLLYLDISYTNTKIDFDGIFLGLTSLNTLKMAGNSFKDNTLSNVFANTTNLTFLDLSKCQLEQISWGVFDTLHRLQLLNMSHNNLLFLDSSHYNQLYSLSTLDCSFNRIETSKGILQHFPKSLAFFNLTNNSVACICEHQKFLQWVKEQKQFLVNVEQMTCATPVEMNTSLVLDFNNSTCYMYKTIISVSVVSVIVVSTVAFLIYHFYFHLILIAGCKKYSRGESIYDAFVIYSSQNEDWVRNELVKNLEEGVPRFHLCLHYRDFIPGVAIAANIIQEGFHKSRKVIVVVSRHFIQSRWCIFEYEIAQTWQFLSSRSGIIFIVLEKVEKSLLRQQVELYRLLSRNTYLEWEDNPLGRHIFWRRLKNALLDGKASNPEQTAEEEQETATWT

[3] = target: TLR2 (hTLR2) (Homo sapiens) (UniProt O60603); test: activity in cells; details: 20 and 200 nM; no agonism, no antagonism of Pam3 activation; protein on the cell surface; protein details: HEK-blue-hTLR2 cells; single-stranded DNA; variant of ApTLR#4F
[4] = target: TLR5 (hTLR5) (Homo sapiens) (UniProt O60602); test: activity in cells; details: 20 and 200 nM; no agonism, no antagonism of FLAT-ST activation; protein on the cell surface; protein details: HEK-blue-hTLR5 cells; single-stranded DNA; variant of ApTLR#4F

Question: With “CCGGCACGGGACAAGGCGCGGGACGGCGTAGATCAGGTCGACACC [ApTLR#1RT]” as the sequence, how does the “functional effect of the aptamer” value ([1]; antagonism of LPS- and DAMP-induced SEAP maintained at 20 nM, variant of ApTLR#1R) read?
Answer: active

Question: With “GCGGATGAAGACTGGTGTGCCAATAAACCATATCGCCGCGTTAGCATGTACTCGGTTGGCCCTAAATACGAGCAAC [ApTLR#4F]” as the sequence, how does the functional effect of the aptamer ([1]; maximal at 200 nM, LPS-induced SEAP, 38x(AG) ssDNA as control) read?
Answer: 30 % inhibition

Question: What does the source list for “GGTGTGCCAATAAACCATATCGCCGCGTTAGCATGTACTCGGTTGGCCCTAAATACGAG [ApTLR#4FT (ApTOLL)]”?
Answer: binding result [2]: binds; functional effect of the aptamer [3]: not active; functional effect of the aptamer [4]: not active; functional effect of the aptamer ([1]; antagonism of LPS- and DAMP-induced SEAP maintained at 20 nM, variant of ApTLR#4F): active

Question: For “GTTGCTCGTATTTAGGGCCACCGGCACGGGACAAGGCGCGGGACGGCGTAGATCAGGTCGACACCAGTCTTCATCCGC [ApTLR#1R]”, which functional effect of the aptamer ([1]; maximal at 20 nM, LPS-induced SEAP, 38x(AG) ssDNA as control) is on record?
Answer: 30 % inhibition
